Laboratory results reported in PubChem BioAssay AID2685 (National Center for Advancing Translational Sciences (NCATS), 2010).
Out of some 320,000 compounds screened, about 2,100 (0.66%) were called active. The shares of active, inactive and inconclusive entries below differ from those in the screen. The call rests on the fitted dose curve; in most records, active means well fitted inhibition curve with a large enough effect in the signal ratio, with a control signal flat (not every such curve was filed as active); inconclusive means small, poorly fitted or top-dose-only effect, or effect the other way, or a change in a side signal; inactive means flat fitted curve, though single readings scatter; the % refers to the signal ratio. A potency beside an inconclusive call is a rough fit, not a confirmed value.

test: qHTS Assay for Lipid Storage Modulators in Drosophila S3 Cells; details: BODIPY lipid droplet fluorescence, 18-24 h, cells fed with added oleic acid; lipid storage change, negative = inhibition: at 46.1 µM (top of the series) unless noted
In short: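 Laser-scanning cytometry quantifies lipid droplet accumulation (500–530 nm total intensity; droplet/cell object ratio) in oleic acid-fed (400 uM added) Drosophila S3 cells treated with a concentration series. 20 uM Triacsin C defined 100% inhibition.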
On the % scale 0 is the no-effect control and ±100 the full control effect; potency means the concentration at half of the fitted maximal effect.

Row | Compound | Potency | lipid storage change, negative = inhibition
1 | COc1ccc(-c2csc(NCc3ccco3)n2)cc1C | inconclusive: 2.31 µM [activator, partial curve] | –
2 | O=C1/C(=C/c2cccnc2)Sc2ccccc21 | – | inconclusive: -28.6%
3 | CCNC(=O)NC(=O)COC(=O)CNC(=O)COc1ccccc1 | – | inconclusive: -28.6%
4 | O=C(Nc1nnc(-c2ccco2)s1)C1CC1 | – | inconclusive: -18.9%
5 | CC1CCC2(CC1)NC(=O)N(CC(=O)N(Cc1ccccc1)C(C)(C)C)C2=O (stereo not given) | – | inconclusive: 14.6%
6 | COc1ccc(C(=O)NCC2CCCCC2)cc1S(=O)(=O)N1CCCC1 | – | inconclusive: 5.02%
7 | CC(=O)Nc1cccc(NC(=O)CSc2nnc(Cc3cccn3C)n2-c2ccc(C)cc2)c1 | inconclusive: 8.2 µM [falling, partial curve, poor fit] | –
8 | CCOc1c(Cl)cc(/C=N/O)cc1OC | – | inconclusive: -4.33%
9 | Cc1ccc(NC(=O)N2CCCC2C(=O)NCCC2=CCCCC2)cc1 (stereo not given) | inconclusive: 5.8 µM [falling, single point] | –
10 | Cc1ccsc1C(=O)OCC(=O)NCCNC(=O)COC(=O)c1sccc1C | – | inactive: -4.96% [at 0.0737 µM]
11 | Cc1cccc(NS(=O)(=O)c2ccc(C(=O)N3CCN(c4ccccc4O)CC3)cc2)c1C | inconclusive: 29.1 µM [falling, single point] | –
12 | CCOC(=O)c1c(CC(C)C)csc1NC(=O)COC(=O)C1=NNC(=O)CC1 | – | inconclusive
13 | O=C(COC(=O)c1cc(Cl)ccc1O)NCCNC(=O)COC(=O)c1cc(Cl)ccc1O | – | inconclusive: 80.1%
14 | CCOc1ccc(NC(=O)NCC2CCN(Cc3ccc(F)cc3)CC2)cc1 | – | inconclusive: 16.3%
15 | O=C(OCc1ccc([N+](=O)[O-])cc1)C1CCN(S(=O)(=O)c2ccccc2)CC1 | – | inconclusive: 2.17%
16 | O=C(COC(=O)Cn1cnc2ccccc21)NCCc1ccccc1 | inconclusive: 0.461 µM [falling, full curve, poor fit] | –
17 | Cc1ccc(N2CC(C(=O)Nc3ccc(S(=O)(=O)N4CCCC4)cc3)CC2=O)cc1 (stereo not given) | inconclusive: 0.0046 µM [falling, full curve, poor fit] | –
18 | CCOc1ccc2[nH]cc(C(=O)NCc3ccc(F)cc3)c(=O)c2c1 | – | inconclusive: -27.3%
19 | COCC(=O)N1CCCc2ccccc21 | inconclusive: 29.1 µM [activator, single point] | –
20 | CC1CC(C)CN(CCCNC(=O)c2c(O)nc3ccccn3c2=O)C1 (stereo not given) | – | inconclusive
21 | CCC(CC)c1nn2c(N)c(/C=C3\C=Nc4ccccc43)c(=O)nc2s1 | – | inconclusive: -20.9%
22 | O=C1OC(Nc2ccc3c(c2)OCO3)c2ccccc21 (stereo not given) | – | inconclusive: 10.9%
23 | COC(=O)c1ccccc1COn1c(=O)c(C)[n+]([O-])c2ccccc21 | – | inconclusive: 45.8%
24 | COC(=O)c1cc(C(=O)NCCN2C(=O)S/C(=C\c3cccs3)C2=O)cc([N+](=O)[O-])c1 | – | inconclusive: 7.57%
25 | Cc1ccc(Nc2nnc(SCC(=O)c3ccc(O)cc3O)s2)cc1 | inconclusive: 0.259 µM [activator, full curve] | –

Records 4 through 6, reprinted for reference:
Row | Compound | Potency | lipid storage change, negative = inhibition
4 | O=C(Nc1nnc(-c2ccco2)s1)C1CC1 | – | inconclusive: -18.9%
5 | CC1CCC2(CC1)NC(=O)N(CC(=O)N(Cc1ccccc1)C(C)(C)C)C2=O (stereo not given) | – | inconclusive: 14.6%
6 | COc1ccc(C(=O)NCC2CCCCC2)cc1S(=O)(=O)N1CCCC1 | – | inconclusive: 5.02%

Further compounds follow:

Row | Compound | Potency | lipid storage change, negative = inhibition
26 | O=C1/C(=C/Nc2cccc([N+](=O)[O-])c2)CCc2ccccc21 | – | inconclusive: -59%
27 | CCOc1ccc(NC(=O)NC(C)c2ccc3c(c2)OCO3)cc1 (stereo not given) | – | inactive
28 | O=C(O)c1ccc(COc2cccc(CO)c2)cc1 | – | inconclusive: -57.7%
29 | Cc1c(C(C)(C)O)[nH]c2cc(C(F)(F)F)ccc12 | inconclusive: 0.517 µM [activator, single point] | –
30 | COC(=O)CSc1nnc(CNC(=O)c2ccc(S(=O)(=O)N3CCCCC3)cc2)n1C | – | inconclusive: 3.75%
31 | CCCCCn1c(=NC(=O)c2ccco2)c(C(=O)OCC)cc2c(=O)n3ccccc3nc21 | inconclusive: 1.46 µM [activator, full curve] | –
32 | Cc1ccc(Cl)cc1NC(=O)NCc1cccnc1 | inconclusive: 29.1 µM [activator, single point] | –
33 | CCN(C(=O)CN1CCCCC1C)c1c(N)n(Cc2ccccc2)c(=O)[nH]c1=O (stereo not given) | – | inconclusive: 5.13%
34 | CS(=O)(=O)N1CCN(C(=O)NC2CCCCC2)CC1 | – | inconclusive: -17.4%
35 | CN(C)/C=C(\C(=O)c1ccccc1)c1nnnn1-c1ccccc1 | – | inconclusive: 2.43%
36 | Cc1nc2ccc(-c3nc4ccccc4[nH]3)cc2[nH]1 | inconclusive: 14.6 µM [falling, partial curve, poor fit] | –
37 | COc1ccc([C@@H]2[C@@H]3C(=O)N(C(C)(C)C)C(=O)[C@@H]3[C@]3(Cc4ccc(Cl)cc4)C(=O)N(c4cccc(F)c4)C(=O)N23)cc1 | inconclusive: 7.31 µM [activator, partial curve] | –
38 | CCc1ncc(CN2CCC(C(=O)Nc3cccc(-c4cscn4)c3)CC2)cn1 | inconclusive: 29.1 µM [falling, single point] | –
39 | Clc1ccccc1-c1nnc(-c2ccc3c(c2)OCO3)o1 | – | inconclusive: -4.79%
40 | COc1cc(C(=O)O)ccc1Cl | – | inconclusive: -26.8%
41 | COc1ccnc(Oc2ccc(F)cc2)c1C(=O)N/C=N/OCc1ccccc1 | – | inconclusive: 18.3%
42 | CCCC(C(=O)NC(C)(C)CC)N(Cc1ccco1)C(=O)CNS(=O)(=O)c1ccccc1 (stereo not given) | – | inconclusive: 20.5%
43 | Cc1ccc(Oc2cc(NC(=O)CCCn3nc([N+](=O)[O-])cc3C)cc([N+](=O)[O-])c2)cc1 | inconclusive: 20.6 µM [falling, partial curve, poor fit] | –
44 | CCOC(=O)c1cnc2ccc(F)cc2c1Nc1ccc2c(c1)OCCO2 | – | inconclusive: -1.23%
45 | COC(=O)c1cccc(NCN2C(=O)c3ccccc3C2=O)c1 | – | inconclusive: -27.6%
46 | NC(=O)C1CCN(Cc2nnnn2Cc2ccco2)CC1 | inconclusive: 4.61 µM [falling, partial curve, poor fit] | –
47 | COc1cccc(NC(=O)COC(=O)/C=C/c2ccco2)c1 | inconclusive: 4.61 µM [activator, full curve, poor fit] | –
48 | CCn1c(SCc2nc3ccccc3c(=O)[nH]2)nnc1C(C)NC(=O)c1ccccc1 (stereo not given) | – | inconclusive: 7.38%
49 | Cc1ccc(N(C)C(=O)C2CCCN2S(=O)(=O)c2cccc3nsnc23)cc1 (stereo not given) | – | inconclusive: 16.9%
50 | Cc1ccc(C)c(SCC(=O)Nc2oc(C)c3c(C)n[nH]c(=O)c23)c1 | – | inconclusive: -5.74%

Row | Compound | Potency | lipid storage change, negative = inhibition
51 | FC(F)(F)c1ccc(CN2C[C@@H]3C(c4ccccc4)C4(c5ccccc5)CC3(C4)[C@H]2c2ccccc2)cc1 (stereo not given in full) | inconclusive: 29.1 µM [cytotoxic, single point] | –
52 | O=C(CSc1nnc(NC(=O)c2c(F)cccc2F)s1)Nc1ccc(F)cc1 | – | inconclusive: 11.8%
53 | CC(Sc1ncn[nH]1)C(=O)c1c(N)n(C)c(=O)n(C)c1=O (stereo not given) | inconclusive: 0.651 µM [activator, single point] | –
54 | COc1ccc(C)cc1NC(=O)NC1CCCc2ccccc21 (stereo not given) | – | inconclusive: 24%
55 | CC(C)(C)NC(=O)C(c1c[nH]c2ccccc12)N(C(=O)Cn1nnc(-c2ccc(Cl)cc2)n1)c1ccccc1F (stereo not given) | – | inconclusive: 14.3%
56 | COc1ccc(N(C(C)C(=O)NCCSCc2cccc(Cl)c2)S(C)(=O)=O)cc1 (stereo not given) | inconclusive: 16.4 µM [falling, single point] | –
57 | COc1ccc(NC(=S)N2CCC(C(=O)c3ccc(C)cc3)CC2)c(OC)c1 | inconclusive: 0.58 µM [falling, full curve] | –
58 | CCN(CC)c1ccc(NC(=O)c2cccc(OC)c2)c(C)c1 | inconclusive: 7.31 µM [activator, single point] | –
59 | Cc1nc2ccccn2c1-c1ccnc(SCc2ccc(Cl)cc2)n1 | – | inconclusive: -14.9%
60 | Cc1cc(=O)n2c3ccccc3n(CC(O)CN3CCCCC3)c2c1C#N (stereo not given) | – | inconclusive: 42.9%
61 | CCOC(=O)c1cccc(-c2c(-c3ccccc3)ncc3cc(OC)c(OC)cc23)c1 | inconclusive: 8.2 µM [cytotoxic, single point] | –
62 | CCC1=NN(C(=O)CCc2ccc3c(c2)OCO3)C(O)(C(F)(F)F)C1 (stereo not given) | – | inconclusive: 6.82%
63 | Cc1cc(NC(=O)CSc2nnc3ccccn23)no1 | – | inconclusive: -26%
64 | Cc1ccnc(SCC(=O)Nc2c(C)n(C)n(-c3ccccc3)c2=O)n1 | – | inconclusive: 0.0744%
65 | O=c1c2c3c(sc2nc2n1CCC2)CCCC3 | – | inconclusive: 14.5%
66 | Cc1cc(C)c2c(=O)n(CC(=O)NC3CCCC3)sc2n1 | – | inconclusive: -100%
67 | COc1ccc(NC(=O)C(C/C=C(/C)Cl)C(C)=O)cc1 (stereo not given) | – | inconclusive: 5.33%
68 | Cc1ccc(NC(=O)N2CCCC2C(=O)NCc2ccc(Cl)cc2)cc1 (stereo not given) | – | inconclusive: 11.3%
69 | O=C(O)CSCC(=O)Nc1ccc(C(F)(F)F)cc1 | – | inconclusive: 139%
70 | O=c1cc(N2CCCCC2)c(-c2ccccc2)nn1Cc1ccccc1 | – | inconclusive: -30.3%
71 | CN(C)CCCN(C(=O)c1ccc(S(=O)(=O)N2CCCCC2)cc1)c1nc2cc3c(cc2s1)OCO3 | – | inconclusive: 10.6%
72 | COc1ccc(CC(=O)N2CCCc3ccccc32)cc1 | – | inconclusive: -0.752%
73 | COc1ccc(CN2CCCC2C(=O)Nc2ccc(OC)c(OC)c2)cc1OC (stereo not given) | inconclusive: 0.92 µM [falling, full curve, poor fit] | –
74 | N/C(Cc1ccc([N+](=O)[O-])cc1)=N\OC(=O)COc1ccccc1Cl | – | inconclusive: 15.3%
75 | CNc1c([N+](=O)[O-])cnn1-c1ccc(Cl)cc1Cl | – | inconclusive: -8.11%
